The inconclusive results got no clear call from the source; some entries with a clear call stand among them for comparison. Potencies beside an inconclusive call are fits to weak or partial responses and may not hold up. Activity calls are given as the source filed them. The call rests on the fitted dose curve; in most records, active means well fitted inhibition curve with a large enough effect; inconclusive means small, poorly fitted or top-dose-only effect; inactive means flat fitted curve, though single readings scatter.
biological target: Ferritin light chain (Equus caballus) (UniProt P02791); test: Confirmation Assay for Identification of Novel General Anesthetics; details: apoferritin 1-aminoanthracene fluorescence displacement; further: nearly all actives have a fitted effect of over 40% in size
Source text: Anesthetic development has remained a largely empirical process. There are growing concerns about the cognitive effects of known general anesthetics and acceleration of the onset of neurodegenerative disease. The compounds' toxicity and multiple specific binding targets in the mammalian brain [4] has made them less attractive as drug leads. In this assay, a GABAergic mimetic model system, apoferritin and a profluorescent 1-aminoanthracene ligand (1-AMA), was used to construct a competitive binding assay for identification of novel general anesthetics. The assay was validated for 1-AMA using other known anesthetics, such as isoflurane (CID:3763) and propofol (CID: 4943), [6]. This particular BioAssay is a confirmation of followup compounds from primary screen AID:485281.
[1] S.L. Bianchi, T. Tran, C. Liu, S. Lin, Y. Li, J.M. Keller, R.G. Eckenhoff, and M.F. Eckenhoff, Brain and behavior changes in 12-month-old Tg2576 and nontransgenic mice exposed to anesthetics. Neurobiol Aging 29 (2008) 1002-10.
[2] Z. Xie, Y. Dong, U. Maeda, R.D. Moir, W. Xia, D.J. Culley, G. Crosby, and R.E. Tanzi, The inhalation anesthetic isoflurane induces a vicious cycle of apoptosis and amyloid beta-protein accumulation. J Neurosci 27 (2007) 1247-54.
[3] P. Honegger, and J.M. Matthieu, Selective toxicity of the general anesthetic propofol for GABAergic neurons in rat brain cell cultures. J Neurosci Res 45 (1996) 631-6.
[4] M.F. Eckenhoff, K. Chan, and R.G. Eckenhoff, Multiple specific binding targets for inhaled anesthetics in the mammalian brain. J Pharmacol Exp Ther 300 (2002) 172-9.
[5] C.A. Butts, J. Xi, G. Brannigan, A.A. Saad, S.P. Venkatachalan, R.A. Pearce, M.L. Klein, R.G. Eckenhoff, and I.J. Dmochowski, Identification of a fluorescent general anesthetic, 1-aminoanthracene. Proc Natl Acad Sci U S A 106 (2009) 6501-6.
[6] W.A. Lea, J. Xi, A. Jadhav, L. Lu, C.P. Austin, A. Simeonov, and R.G. Eckenhoff, A high-throughput approach for identification of novel general anesthetics. PLoS One 4 (2009) e7150.
Source: NIH Chemical Genomics Center [NCGC]
Assay Submitter: Roderic Eckenhoff, University of Pennsylvania
Screening Center PI: Christopher P. Austin, NIH
Probe Development: NIH Chemical Genomics Center [NCGC]
Three uL of reagents (free 1-AMA (50% saturated solution of 1-aminoanthracene
in PBS) in columns 3, 4 as negative control and 1-AMA/apoferritin mixture (10 uM horse-spleen apoferritin in 50% saturated 1-aminoanthracene in PBS) in columns 1, 2, 5-48) was dispensed into 1536-well Greiner black assay plates. Compounds (23 nL) were transferred via Kalypsys pintool equipped with 1,536-pin array (10 nL slotted pins, V&P Scientific, San Diego, CA). Titration of the positive control, propofol, were delivered via pin transfer from separate control plates to the 2nd column of each assay plate. The starting concentration of the control, dissolved in DMSO, was at 160 mM, followed by two-fold dilution points in duplicate, for a total of 16 concentrations. The plates were incubated for 10 min at room temperature, and then read on an EnVision HTS multilabel reader (Perkin-Elmer, Waltham, MA) (end point read, 3 min/plate) using Fura2 BFP excitation filter (380 nm, bandwidth 10 nm) and fluorescein emission filter (535 nm, bandwidth 25 nm) set. A LANCE/DELFIA dichroic mirror with a cutoff wavelength at 400 nm was used to maximize signal accuracy and strength. Vehicle-only plates, with DMSO being pin-transferred to the entire column 5-48 compound area, were inserted uniformly at the beginning and the end of each library in order to monitor for and record any shifts in the background. Activity was computed as the normalized fluorescence response relative to free 1-AMA and 1-AMA/apoferritin complex values. Concentration-effect relationships were derived by using curve fitting algorithms developed in-house (http://ncgc.nih.gov/pub/openhts/). […]
Potency means the concentration at half of the fitted maximal effect.

Protein sequences, listed by entry. Tags and fused reporters are not part of them. Residues count along the entry.
UniProt P02791, 2-175 limits assumed: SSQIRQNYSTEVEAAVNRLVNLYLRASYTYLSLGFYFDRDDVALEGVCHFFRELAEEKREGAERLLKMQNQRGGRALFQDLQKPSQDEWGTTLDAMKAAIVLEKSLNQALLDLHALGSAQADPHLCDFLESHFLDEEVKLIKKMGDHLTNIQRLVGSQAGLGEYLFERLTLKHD

Potency, active:
COc1ccc(CNC(=O)COC(=O)CCC2CCCCC2)cc1 15.8 µM
N/C(=N\OC(=O)Cc1ccc(-c2ccccc2)cc1)c1ccncc1 31.6 µM
Cc1ccc(CN=C2Nc3ccccc3CS2)cc1 14.1 µM
O=C(CC1SCCNC1=O)Nc1ccc(Cl)c(Cl)c1 (stereo not given) 20 µM
O=C(CN1CCCC1)Nc1ccc(OCc2ccccc2)cc1 15.8 µM
O=C(NC1C2CC3CC(C2)CC1C3)c1ccc2c(c1)OCO2 (stereo not given) 28.2 µM
C/C(=N\Nc1ccc(F)cc1F)c1cccs1 11.2 µM
Oc1ccc(NCc2cccc(OCc3ccccc3)c2)cc1 15.8 µM
Cn1cc(Br)c(C(=O)NC2C3CC4CC(C3)CC2C4)n1 (stereo not given) 10 µM
Cc1ccccc1OCC(=O)N1CCCCCCC1 7.94 µM
Fc1ccccc1CNc1cc(Cl)cc(Cl)c1 14.1 µM
O=C(CCC1CCCCC1)Nc1nncs1 15.8 µM
Cc1ccccc1Nc1cccc2nonc12 20 µM
CN(C)c1ccc(C(=S)N2CCCCCC2)cc1 25.1 µM
O=C(Nc1cccc(Cl)c1)C1COc2ccccc2O1 (stereo not given) 14.1 µM

4 compounds picked at random from those above, as already listed:
Potency, active:
O=C(NC1C2CC3CC(C2)CC1C3)c1ccc2c(c1)OCO2 (stereo not given) 28.2 µM
Cc1ccccc1OCC(=O)N1CCCCCCC1 7.94 µM
O=C(CCC1CCCCC1)Nc1nncs1 15.8 µM
O=C(CN1CCCC1)Nc1ccc(OCc2ccccc2)cc1 15.8 µM

Next part.

Potency, inconclusive:
N#Cc1c(N)sc2c1CCCCCC2 17.8 µM [inhibitor, partial curve]
Cc1ccc(F)c(NC(=O)C2CCCCC2C(=O)O)c1 (stereo not given) 31.6 µM [inhibitor, partial curve]
CCN(CC)c1ccc(NC(=O)C2CC3CCC2C3)cc1 (stereo not given) 31.6 µM [inhibitor, partial curve]
CCCCn1nnc(NC(=O)COc2ccc(Cl)c(C)c2)n1 39.8 µM [inhibitor, partial curve]
O=c1c2ccccc2cnn1Cc1cccc(Br)c1 25.1 µM [inhibitor, partial curve]
COc1ccc(Oc2c(Cl)cnn(-c3ccccc3)c2=O)cc1 31.6 µM [inhibitor, partial curve]
COc1ccccc1N=c1sc2ccccc2n1C 15.8 µM [inhibitor, partial curve]
CCN(CC)S(=O)(=O)c1ccc2c3c(cccc13)C(=O)S2 15.8 µM [inhibitor, partial curve]
Cc1cccc(NCc2ccccc2O)n1 39.8 µM [inhibitor, partial curve]
N#Cc1c(-n2ncnc2-c2ccc(F)cc2)sc2c1CCCCC2 17.8 µM [inhibitor, partial curve]
Cc1ccc(C(=O)COC(=O)COc2ccc(C)c(C)c2)cc1 14.1 µM [inhibitor, partial curve]
CCCCc1ccc(NS(=O)(=O)N(C)C)cc1 20 µM [inhibitor, partial curve]
NS(=O)(=O)c1cccnc1Nc1cccc(Cl)c1 17.8 µM [inhibitor, partial curve]
Cc1cc(C)nc(SCc2ccc3nonc3c2)n1 44.7 µM [inhibitor, partial curve]
O=S(=O)(NCCc1ccccc1)c1ccc(Br)cc1 28.2 µM [inhibitor, partial curve]
Cc1cc(=O)[nH]c(SCC(=O)N2c3ccccc3CC2C)n1 (stereo not given) 31.6 µM [inhibitor, partial curve]
Oc1ccc(NCc2ccccc2OCc2ccccc2Cl)cc1 39.8 µM [inhibitor, partial curve]
Cc1cc(C(=O)NCCC2=CCCCC2)no1 22.4 µM [inhibitor, partial curve]
O=C(c1cccs1)c1coc2ccc(O)cc12 31.6 µM [inhibitor, partial curve]
Cc1ccc(NC(=O)CCn2cccc2)cc1Cl 31.6 µM [inhibitor, partial curve]
COc1ccc(NC(=O)c2csc3c2CCCCC3)c(OC)c1 8.91 µM [inhibitor, full curve]
CC1CCCN(C(=O)C2COc3ccccc3O2)C1 (stereo not given) 31.6 µM [inhibitor, partial curve]
O=S(=O)(Nc1cc(Cl)cc(Cl)c1)N1CCOCC1 14.1 µM [inhibitor, partial curve]
O=C1CCCc2ccccc2N1Cc1cccc(Cl)c1 28.2 µM [inhibitor, partial curve]
NC(=O)NCC12CC3CC(CC(C3)C1)C2 10 µM [inhibitor, partial curve]

Source: PubChem BioAssay AID489008 (National Center for Advancing Translational Sciences (NCATS), 2010)
